From ChEMBL document CHEMBL4673388, “Enhancing Antimicrobial Peptide Potency through Multivalent Presentation on Coiled-Coil Nanofibrils” (ACS Med Chem Lett, 2021)
Values after ≈ are worked out from the molar mass of the structure shown.

Tested on: Escherichia coli
Test: Antibacterial activity against Escherichia coli ATCC 25922 assessed as inhibition of bacterial growth incubated for 16 to 20 hrs by microdilution method
Format: functional
Settings: time 16-20 hrs

Structure (SMILES): CC1(C)S[C@@H]2[C@H](NC(=O)[C@H](N)c3ccccc3)C(=O)N2[C@H]1C(=O)O [AMPICILLIN]
- MIC: 11.4 µM (≈ 3.98 µg/mL)
